Drawing on paper PMC4840315, this text covers binding for one molecule.

Results are given in words; binding and its absence hold for the method and conditions named. Binding calls can cover weak binding; strength is not graded here.

The test addresses insulin. Nature of the test: far-Western, overlay or dot blot; 20 ul insulin (1 ug/ul) run on SDS-PAGE, electroblotted on nitrocellulose; membrane incubated with His-tagged wild-type IGFBP7 or fragments (1:3000 dilution), room temperature; detected with anti-His antibody and fluorescent secondary antibody (Odyssey); both purified.

B1: IGFBP7-N fragment (1-171) (domain or fragment, UniProt Q16270 27-171)
chain: SSSDTCGPCEPASCPPLPPLGCLLGETRDACGCCPMCARGEGEPCGGGGAGRGYCAPGMECVKSRKRRKGKAGAAAGGPGVSGVCVCKSRYPVCGSDGTTYPSGCQLRAASQRAESRGEKAITQVSKGTCEQGPSIVTPPKDIWN
For the molecule B1, the binding entry is “binds weakly”.
